Reference: patent publication US20200002403A1 (UNIVERSITY COURT OF THE UNIVERSITY OF ABERDEEN, published 2020)
Numbering of substitutions follows the chain as printed. These are yes or no findings as the source states them, for the method shown. A result given as binding can be weak or reduced; the word gives no strength. One block for each binder: values may come before it.

Molecular target: DLL4 (Homo sapiens (Human))
Test: lead clones against targets used to screen ELSS1; alignment legend

binding: binds
B1: SEQ ID NO 154 (VNAR)
VNAR: TRVDQTPRTATKETGESLTINCVLTDTSYALSATSWFRKNPGTTDWERMSIGGRYVESVNKGAKSFSLRIKDLTVADSATYICRAAWWPFMIEETTDVYGAGTVLTVN

binding: binds
B2: SEQ ID NO 138 (VNAR)
VNAR: ASVNQTPRTATKETGESLTINCVLTDTFASSHHTSWFRKNPGTTDWERMSIGGRYVESVNKGAKSFSLRIKDLTVADSATYICRAVHPFSRVENIWDVYGAGTVLTVN

binding: binds
B3: SEQ ID NO 143 (VNAR)
VNAR: TRVDQTPRTATKETGESLTINCVLTDTNYSLYATSWFRKNPGTTDWERMSIGGRYVESVNKGAKSFSLRIKDLTVADSATYICRAVWFPYFISDMWDVYGAGTVLTVN

binding: binds
B4: SEQ ID NO 146 (VNAR)
VNAR: B3 VNAR with N28D, S30G, F88K, F91M, I92V, S93V, D94H, M95L

binding: binds
B5: SEQ ID NO 148 (VNAR)
VNAR: B3 VNAR with N28D, Y32F, A33S, F88M, F91T, I92V, S93V, M95S, W96S

binding: binds
B6: SEQ ID NO 77 (VNAR)
VNAR: B3 VNAR with N28R, S30A, Y32F, V86A, F88Q, F91N, I92V, S93D, D94S, M95I

binding: binds
B7: SEQ ID NO 153 (VNAR)
VNAR: ASVNQTPRTATKETGESLTINCVLTDTKYLYSTSWFRKNPGTTDWERMSIGGRYVESVNKGAKSFSLRIKDLTVADSATYICRAWTSFEEQVKDVYGAGTVLTVN
